Measured values published in patent publication US20250282882A1.
No constants are given. Whether binding was seen depends on the method and setting. Some binding calls cover weakened binding; strength is not graded here. Where a sequence is shown, tags or fusion partners need not be part of it.

Biological target: T1, OX40-Fc (UniProt P43489)
T1 sequence (looked up): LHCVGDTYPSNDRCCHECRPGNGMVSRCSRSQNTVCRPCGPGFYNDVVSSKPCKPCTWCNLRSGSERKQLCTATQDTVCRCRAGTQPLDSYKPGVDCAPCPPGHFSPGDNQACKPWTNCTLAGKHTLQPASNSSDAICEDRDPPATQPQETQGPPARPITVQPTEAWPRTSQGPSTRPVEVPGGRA
Assay: plate binding assay, OX40-Fc coated

- binding: binds
B1: anti-OX40 antibody Drug Substance (DS) (antibody, human IgG1, kappa, N297A, V domains shown)
VH: QVQLVQSGAEVKKPGASVKVSCKASGYTFTSYWVDWVRQAPGQGLEWMGNIYPSDSETHYNQKFKDRVTMTRDTSTSTVYMELSSLRSEDTAVYYCARSYGYYGTWFAYWGQGTLVTVSS
VL: DIVMTQSPDSLAVSLGERATINCRASESVDSSGNSFMHWYQQKPGQPPKLLIYRASNLESGVPDRFSGSGSGTDFTLTISSLQAEDVAVYYCQQSNEDPWTFGGGTKLEIKR
